Shown are results outside the selection of hits, which stands elsewhere. The source made the active and inactive calls. Rule as the data show it: active = inhibition of mean fluorescence above about 33%; inactive = the rest.

A short description of this experiment: quorum sensing inhibitors in bacterial reporter, SAR follow-up, flow cytometry, SAR analogs (AID 1014).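 Also: Staphylococcus aureus RN6390 with RNAIII-GFP reporter stimulated by AIP; bacteria incubated with compound for 3 hours at 37 °C.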 As to conditions: at 20 µM, stronger effect = higher value; inhibition of percent positive cells: flow cytometry fluorescence, measured here: percent reporter-positive cells.

For `O=C(O)c1ccc(Nc2nccc(Nc3ccccc3C(=O)O)n2)cc1`, the inhibition of mean fluorescence was inactive: -6.3% and the inhibition of percent positive cells was -0.3%.

(Values after PubChem BioAssay AID1014 (NMMLSC, 2008).)
